The results in this text go back to article PMC5345657, “Targeting myeloid differentiation protein 2 by the new chalcone L2H21 protects LPS‐induced acute lung injury” (Journal of Cellular and Molecular Medicine, 2016).

Amino acid sequences for entries named in this document (tags omitted). Residues count along the entry.
UniProt Q9QUK6, residues 26-835: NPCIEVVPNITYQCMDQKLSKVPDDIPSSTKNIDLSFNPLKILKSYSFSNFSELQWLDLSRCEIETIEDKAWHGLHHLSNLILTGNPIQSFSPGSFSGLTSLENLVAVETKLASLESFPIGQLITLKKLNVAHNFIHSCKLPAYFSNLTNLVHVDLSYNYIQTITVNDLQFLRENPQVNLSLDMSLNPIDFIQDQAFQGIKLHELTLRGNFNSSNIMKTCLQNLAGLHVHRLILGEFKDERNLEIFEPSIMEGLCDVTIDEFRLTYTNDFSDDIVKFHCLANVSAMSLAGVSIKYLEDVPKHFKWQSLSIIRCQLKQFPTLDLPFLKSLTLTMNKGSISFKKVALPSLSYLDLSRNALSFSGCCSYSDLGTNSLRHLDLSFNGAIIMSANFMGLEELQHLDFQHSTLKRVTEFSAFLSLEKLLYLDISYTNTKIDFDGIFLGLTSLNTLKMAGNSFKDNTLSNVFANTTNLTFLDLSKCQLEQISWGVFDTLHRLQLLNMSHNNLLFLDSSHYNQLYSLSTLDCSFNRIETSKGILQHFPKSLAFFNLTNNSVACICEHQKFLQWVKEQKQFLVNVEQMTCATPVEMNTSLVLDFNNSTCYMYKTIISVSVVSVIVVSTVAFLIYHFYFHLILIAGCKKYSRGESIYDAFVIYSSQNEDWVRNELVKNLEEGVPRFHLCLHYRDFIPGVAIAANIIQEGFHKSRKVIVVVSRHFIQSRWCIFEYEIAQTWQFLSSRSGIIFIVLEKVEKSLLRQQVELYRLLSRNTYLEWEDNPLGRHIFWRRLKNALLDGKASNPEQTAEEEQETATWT

Assay [1] has as its target T1, myeloid differentiation protein 2 (mouse (endogenous in mouse peritoneal macrophages and mouse lung tissue)) (UniProt Q9JHF9).
T1 sequence: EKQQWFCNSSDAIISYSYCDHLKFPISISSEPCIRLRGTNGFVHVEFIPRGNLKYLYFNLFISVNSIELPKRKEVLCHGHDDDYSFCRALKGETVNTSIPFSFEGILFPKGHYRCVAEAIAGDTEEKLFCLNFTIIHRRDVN
Description: co-IP; lung tissue lysates of ALI mice (intratracheal LPS 5 mg/kg, with or without L2H21 20 mg/kg by gavage for 7 days); immunoprecipitated with anti-MD-2 antibody, protein A+G agarose, blot with anti-TLR4 and anti-MD-2.

In assay [2] the target is T1, myeloid differentiation protein 2 (mouse (endogenous in mouse peritoneal macrophages and mouse lung tissue)). Description: co-IP; mouse peritoneal macrophages pre-treated with L2H21 (10 uM) or DMSO for 30 min, then LPS (1 ug/ml) for 5 min; lysate (400 ug protein) immunoprecipitated with anti-MD-2 antibody at 4 C overnight, protein A+G agarose, blot with anti-TLR4 and anti-MD-2.

Results are given in words; binding and its absence hold for the method and conditions named. In cells and extracts the contact can be indirect. Some entries that bind do so weakly or less than the wild type.

With “toll-like receptor 4 (from UniProt Q9QUK6 26-835)”, the binding entry in assay [1] and in assay [2] was “binds” in each case.
